Reference: PubChem BioAssay AID504467 (National Center for Advancing Translational Sciences (NCATS), 2011)
About 7,700 (2.3%) of roughly 330,000 compounds were called active. Inconclusive means that the source gave no clear call. Such entries were picked first, then a sample of the others. Calls come from the whole dose curve; as a rule, active = well fitted inhibition curve with a large enough effect; inconclusive = small, poorly fitted or top-dose-only effect, or effect the other way; inactive = flat fitted curve, though single readings scatter. A potency beside an inconclusive call is a rough fit, not a confirmed value.

Assay: qHTS screen for small molecules that inhibit ELG1-dependent DNA repair in human embryonic kidney (HEK293T) cells expressing luciferase-tagged ELG1; note: nearly all actives have a fitted effect of over 55% in size
Settings: HEK293T ELG1-luciferase reporter, luminescence, 16 h, DNA damage induced by 5-fluorouridine; series mostly up to 46.1 µM
Excerpt: NIH Molecular Libraries Probe Production Network [MLPCN] NIH Chemical Genomics Center [NCGC] MLPCN Grant: 1 R03 MH092164-01 Assay Provider: Kyungjae Myung, NHGRI, NIH Keywords: MLPCN, qHTS, NCGC, genotoxicity, cancer Assay Overview: Cancer cells divide rapidly compared to normal cells in the body. During cell division, cancer cells need to duplicate their genome by DNA replication. The failure of genome duplication leads to cancer cells' death. Therefore, inhibitors of DNA replication could specifically kill cancer cells. Based on this concept, many chemotherapeutic agents were developed and have been used to treat cancer patients. However, there are a limited number of agents available in the clinical setting, and some of those that do exist have low efficacy and severe side effects. Therefore, if we can find the compounds that effectively block DNA replication either by directly damaging DNA or by inhibiting other cellular mechanisms, the options for cancer treatment will be broadened. With this in mind, we developed a quantitative high-throughput ELG1-luciferase reporter gene assay. Small molecules that specifically block ELG1 function in response to DNA damage can be identified by monitoring the suppression of luciferase activity. Since ELG1 defines a pathway for repairing DNA damage, agents blocking ELG1 function can be used to sensitize cancer cells to chemotherapeutic agents whose mechanism of action involves the induction of DNA damage.
Assay Protocol Summary: For genotoxicity screening, 2,000 cells in 4 uL/well were dispensed into white, solid-bottom 1536-well plates using a solenoid-based dispenser. Following transfer of 1 uL 5-Fluorouridine and 23 nL compound or DMSO vehicle by a pin tool, the plates were incubated 16 hr at 37 °C and 5% CO2. 5 ul ONE-Glo (Promega) was then added to each plate and following a 30 min incubation at room temperature, luciferase activity was quantified on a ViewLux CCD-based plate reader.
Potency is the fitted concentration of half-maximal effect.

SMILES | Potency
O=C(Cn1ncc2c3ccccc3n(Cc3cccc(Cl)c3)c2c1=O)N1CCC2(CC1)OCCO2 | inconclusive: 29.1 µM [inhibitor, single point]
CC12CCC3C(CC=C4CC(O)CCC43C)C1C/C(=C\c1cccc(F)c1)C2=O (stereo not given) | inactive
CCCNC(=O)N1[C@H]2CC[C@@H]1C(C(=O)OC)=C(c1ccc(OC(F)(F)F)cc1)C2 | inactive
Brc1ccc(Oc2cc(Br)c(Br)cc2Br)c(Br)c1 | inactive
O=C(COc1ccc(Cl)cc1Cl)N1CCN(C/C=C/c2ccccc2)CC1 | inconclusive: 23.1 µM [inhibitor, single point]
O=C(NCCCN1CCCC1)c1ccc2c(c1)N(Cc1cccc(Cl)c1)C(=O)c1ccccc1S2=O (stereo not given) | inconclusive: 18.3 µM [activator, partial curve]
COC(=O)C1=C(c2ccc(OC(F)(F)F)cc2)C[C@@H]2CC[C@H]1N2C(=O)NCCO | inactive
O=[N+]([O-])c1ccccc1CCl | inconclusive: 13 µM [activator, partial curve, poor fit]
CSc1nn(-c2ccc(C(=O)OCC(=O)NC(=O)NC(C)C)cc2)c(=S)s1 | inconclusive: 23.1 µM [activator, partial curve, poor fit]
O=C(CCCCCn1c(=S)[nH]c2ccccc2c1=O)N1CCC2(CC1)OCCO2 | inconclusive: 29.1 µM [inhibitor, single point]
COc1ccc(OC)c(CC(=O)O)c1 | inactive
O=C(c1ccc2c(c1)OCO2)C1CCCN(Cc2ccc(F)c(F)c2)C1 (stereo not given) | inactive
CCOP(=O)(OCC)/C(C#N)=C/c1ccc(-c2ccc(F)cc2F)o1 | inconclusive: 29.1 µM [inhibitor, single point]
Fc1ccc(CCNCc2ccc(Br)cc2)cc1 | inactive
Cc1[nH]c2ccc(OCc3ccccc3)cc2c1CCN | inconclusive: 0.517 µM [inhibitor, single point]
O=C1CNC(c2ccccc2Cl)c2cc(Br)ccc2N1 (stereo not given) | inactive
C=C1[C@H]2CC[C@H]3[C@]4(C)C[C@H](O[C@@H]5OC(CO)[C@@H](OSOOO)[C@H](OS(=O)(=O)O)[C@H]5OC(=O)CC(C)C)C[C@@H](C(=O)O)[C@H]4CC[C@]3(C2)[C@H]1O (stereo not given in full) | inactive
COc1ccc(NC2CC(=O)N(C(C)C)C2=O)cc1 (stereo not given) | inconclusive: 4.61 µM [activator, partial curve]
CCCCSc1nc2c(cnn2-c2ccccc2)c(=O)n1N | inconclusive: 4.11 µM [activator, partial curve]
Cc1cc(Oc2cc(NN3CCCCC3)c([N+](=O)[O-])cc2[N+](=O)[O-])ccc1[N+](=O)[O-] | inconclusive: 32.6 µM [activator, single point]

Reformatted in markdown: five of the compounds above

| SMILES | Potency |
| --- | --- |
| O=[N+]([O-])c1ccccc1CCl | inconclusive: 13 µM [activator, partial curve, poor fit] |
| CSc1nn(-c2ccc(C(=O)OCC(=O)NC(=O)NC(C)C)cc2)c(=S)s1 | inconclusive: 23.1 µM [activator, partial curve, poor fit] |
| O=C(CCCCCn1c(=S)[nH]c2ccccc2c1=O)N1CCC2(CC1)OCCO2 | inconclusive: 29.1 µM [inhibitor, single point] |
| COc1ccc(OC)c(CC(=O)O)c1 | inactive |
| O=C(c1ccc2c(c1)OCO2)C1CCCN(Cc2ccc(F)c(F)c2)C1 (stereo not given) | inactive |
